From publication PMC12667553, “TWF2 Drives Tumor Progression and Sunitinib Resistance in Renal Cell Carcinoma through Hippo Signaling Suppression” (Advanced Science, 2025)
These are yes or no findings as the source states them, for the method shown. For some assays here: Binding seen in cells or lysates may run through a third protein. Some entries that bind do so weakly or less than the wild type. For some assays here: Where a sequence is shown, tags or fusion partners need not be part of it.

Protein sequences, listed by entry. Tags and fused reporters are not part of them.
UniProt P46937: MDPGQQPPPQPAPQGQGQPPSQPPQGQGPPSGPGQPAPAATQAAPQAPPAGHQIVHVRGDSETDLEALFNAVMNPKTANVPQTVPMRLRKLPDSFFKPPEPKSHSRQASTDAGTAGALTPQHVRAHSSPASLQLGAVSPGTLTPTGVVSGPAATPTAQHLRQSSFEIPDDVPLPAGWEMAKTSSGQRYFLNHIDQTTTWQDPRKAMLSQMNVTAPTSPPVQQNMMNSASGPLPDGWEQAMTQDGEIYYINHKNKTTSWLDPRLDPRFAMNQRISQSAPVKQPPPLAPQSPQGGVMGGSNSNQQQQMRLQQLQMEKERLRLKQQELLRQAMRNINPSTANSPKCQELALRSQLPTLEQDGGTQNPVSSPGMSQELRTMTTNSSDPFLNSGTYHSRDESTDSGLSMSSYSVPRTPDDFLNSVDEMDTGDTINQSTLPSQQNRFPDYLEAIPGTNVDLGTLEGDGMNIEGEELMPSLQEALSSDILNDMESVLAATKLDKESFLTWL

Assays:
[1] = target: HA-tagged YAP, wild type, expressed in 293T cells (UniProt P46937); experiment: co-IP; 293T cells cotransfected with HA-YAP (wild type or alanine mutants) and TWF2; precipitated with anti-HA antibody
[2] = target: His6-tagged YAP, purified (immobilised in BLI) (UniProt P46937); experiment: BLI; Octet R8; His6-tagged YAP immobilised on HIS1K biosensors, serial dilutions of TWF2 protein; 20 mM HEPES pH 7.5, 300 mM NaCl, 2 mM MgCl2, 0.02% Tween; 360 s association, 360 s dissociation; both purified

B1: Flag-tagged TWF2, wild type, expressed in 293T cells (protein, UniProt Q6IBS0 1-349)
chain: MAHQTGIHATEELKEFFAKARAGSVRLIKVVIEDEQLVLGASQEPVGRWDQDYDRAVLPLLDAQQPCYLLYRLDSQNAQGFEWLFLAWSPDNSPVRLKMLYAATRATVKKEFGGGHIKDELFGTVKDDLSFAGYQKHLSSCAAPAPLTSAERELQQIRINEVKTEISVESKHQTLQGLAFPLQPEAQRALQQLKQKMVNYIQMKLDLERETIELVHTEPTDVAQLPSRVPRDAARYHFFLYKHTHEGDPLESVVFIYSMPGYKCSIKERMLYSSCKSRLLDSVEQDFHLEIAKKIEIGDGAELTAEFLYDEVHPKQHAFKQAFAKPKGPGGKRGHKRLIRGPGENGDDS
binding [1]: binds

B2: recombinant TWF2, purified (BLI analyte) (protein, UniProt Q6IBS0 1-349)
chain: B1 chain
binding [2]: binds
